Measured values reported in doi:10.1101/621078.
Results are given in words; binding and its absence hold for the method and conditions named. In cells and extracts the contact can be indirect. A yes stands for co-enrichment or nearness to the bait. Other partners may have been found. A no says only that the protein was not detected with the bait.

B1: AP-2σ (protein, UniProt O96254 1-141)
chain: MLNFILLQNRQGKTRFSKWYINCNEKKQKKIERDINKILINRSRSYANIFVYENFKIVYRLYAGLYFVVCIENENELYILEFIHFMAQLLDTFFTNVCELDLLFNFHFLYYFFDNIILGGYIYEINRNIILDKINKIKKLI
B2: RESA (protein, UniProt Q8I0U6 1-1085)
chain: MRPFHAYSWIFSQQYMDTKNVKEKNPTIYSFDDEEKRNENKSFLKVLCSKRGVLPIIGILYIILNGNLGYNGSSSSGVQFTDRCSRNLYGETLPVNPYADSENPIVVSQVFGLPFEKPTFTLESPPDIDHTNILGFNEKFMTDVNRYRYSNNYEAIPHISEFNPLIVDKVLFDYNEKVDNLGRSGGDIIKKMQTLWDEIMDINKRKYDSLKEKLQKTYSQYKVQYDMPKEAYESKWTQCIKLIDQGGENLEERLNSQFKNWYRQKYLNLEEYRRLTVLNQIAWKALSNQIQYSCRKIMNSDISSFKHINELKSLEHRAAKAAEAEMKKRAQKPKKKKSRRGWLCCGGGDIETVEPQQEEPVQTVQEQQVNEYGDILPSLRASITNSAINYYDTVKDGVYLDHETSDALYTDEDLLFDLEKQKYMDMLDTSEEESVKENEEEHTVDDEHVEEHTADDEHVEEPTVADDEHVEEPTVADEHVEEPTVAEEHVEEPTVAEEHVEEPASDVQQTSEAAPTIEIPDTLYYDILGVGVNADMNEITERYFKLAENYYPYQRSGSTVFHNFRKVNEAYQVLGDIDKKRWYNKYGYDGIKQVNFMNPSIFYLLSSLEKFKDFTGTPQIVTLLRFFFEKRLSMNDLENKSEHLLKFMEQYQKEREAHVSEYLLNILQPCIAGDSKWNVPIITKLEGLKGSRFDIPILESLRWIFKHVAKTHLKKSSKSAKKLQQRTQANKQELANINNNLMSTLKEYVGSSEQMNSITYNFENINSNVDNGNQSKNISDLSYTDQKEILEKIVSYIVDISLYDIENTALNAAEQLLSDNSVDEKTLKKRAQSLKKLSSIMERYAGGKRNDKKAKKYDTQDVVGYIMHGISTINKEMKNQNENVPEHVQHNAEANVEHDAEENVEHDAEENVEENVEENVEENVEENVEENVEENVEENVEENVEENVEENVEENVEENVEENVEENVEEYDEENVEEVEENVEEYDEENVEEVEENVEENVEENVEENVEEYDEENVEEVEENVEENVEENVEENVEENVEEVEENVEENVEENVEENVEENVEENVEEYDEENVEEHNEEYDE
B3: AP-1/2β (protein, UniProt Q8I3I6 1-929)
chain: MSDLRYFQTTKKGEIHELKEELHSSHKEKKKEAIKKIIAAMTVGKDVSTLFSDVVNCMQTSNIELKKLVYLYVINYAKVQPELAILAVNTFRKDSSDPNPLIRALAIRTMGCIRLEQITEYLIEPLRRCLKDEDPYVRKTAVICIAKLYDISPKLVEEEGFIDTLLDILDDNNAMVVANAVISLTDICENSNKSILKDVINKDENNVNKLLNAINECVEWGQVFILDALVLYEPKTSKDAERVLERILPRLSHANSAVVLSSIKVILCLLDKINDKEFIKNVHKKLSPSLVTLLSAEPEIQYIALRNINLITQKLPNMLSDKINMFFCKYNEPAYVKMEKLDIIIRLVSDKNVDLVLYELKEYSTEVDVEFVKKSVRAIGSCAIKLPQSSEKCINILLDLIDTKINYVIQECIVVIKDIFRKYPNKYESIITILCENLESLDESNAKASLIWIIGEYVERIDNADELIDSFLENFSDEPYNVQLQILTASVKLFLKCSKNTKDIITKVLKLSTEESDNPDLRDRAYIYWRLLSKNIDVAKKIVLADKPPIQEENKITDTKVLNKLIKNISMLSSVYHKLPETFISKKNSYSLNSDNNNDHMQDDHYDDDDYDKDNHVLKIKKQMDKQKYDSYSSDNKKSNHSKSSSDSYNNSSDEFNNDIDDADDSKKSMDLIGLNDDESKPQKTIPPVKMVQVLSSEDAGLKGQTGLSIFASINRIDRKIQLKISVTNQTQNEIVVSGVQINKNSFGLSSPNNLDVQNIGFGETKEMLIYLIPNTLNSNTPPATPLFLQVAIRTNLDIFYFNVPYDIFVVFVENFHMEKDIFKKKWQIIEEAKESILMAVSPMVITSDMLIKRMKIFNISLIARRNVNNMELYYFACITTNNLVILSEVTIQPEKKNVKLCIRTDSSSVIPLYKLLFVKAFSLSVTQT

Target: CHC-2xFKBP-GFP (Plasmodium falciparum (3D7)) (UniProt Q8I5L6)
Test: affinity purification with mass spectrometry

Row | Molecule | binding
1 | AP-2α (from UniProt C6KT12 1-1236) | no binding
2 | Sortilin (from UniProt Q8IKV8 1-895) | binds
3 | B1 | no binding
4 | B2 | binds
5 | B3 | binds
